Some of the results follow.
What follows are sequences tested against OsWRKY34 (Oryza sativa, UniProt Q0JBA9 1-250) (assay: protein-binding microarray (RPBM); PBS, 2% BSA, 51.3 ng/ul salmon testes DNA, 50 uM zinc acetate, 200 nM TF, 25 C, 1 h; high values mean tight binding). Conditions: protein: recombinant; tags: N-terminal polyhistidine and DsRed monomer fusion (pET32a); label: CyDye5-dUTP incorporated in the synthesized complementary strand; 3' TTTTT single-stranded linker to array surface; dsDNA, one strand shown.
Procedure, shortened: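 Transcription factors, each fused N-terminally to a polyhistidine tag and DsRed, were expressed in E. coli BL21-CodonPlus and purified on Ni–NTA. A custom Agilent array was made double-stranded by primer extension with Cy5-dUTP and blocked with 2% BSA. It was incubated with 200 nM protein in PBS, 2% BSA, salmon testes DNA and 50 µM zinc acetate at 25 °C for 1 h, then washed. The binding signal is per-feature fluorescence intensity (arbitrary units) read on an Axon 4000B scanner.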

By UniProt entry, the sequences of proteins in these tests, tags left out.
UniProt Q0JBA9, entry or part of it: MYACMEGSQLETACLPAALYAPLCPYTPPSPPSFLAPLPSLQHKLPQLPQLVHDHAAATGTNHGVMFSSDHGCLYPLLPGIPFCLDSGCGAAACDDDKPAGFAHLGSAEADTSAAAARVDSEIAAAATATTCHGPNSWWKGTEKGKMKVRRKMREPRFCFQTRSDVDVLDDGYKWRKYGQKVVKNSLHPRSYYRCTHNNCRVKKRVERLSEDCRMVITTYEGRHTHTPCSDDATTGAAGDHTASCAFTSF

In order of rising binding signal:
1. TCTCACACTTCGTCGCCGGCTGCTTCCGCTCTGAATCGCCCGGAGTCACCTAGTGCAG  8040 fluorescence intensity (a.u.)
2. CTGTTAACCACACCTTTTCTATTCATGACACTGGTACTCCCGGAGTCACCTAGTGCAG  8050 fluorescence intensity (a.u.)
3. GGAGGATAGAGATGCATATATTTCTCGTCATTTTCTTTCTCGGAGTCACCTAGTGCAG  8060 fluorescence intensity (a.u.)
4. CCGCATGTGACCACCGGTGTTGTTGTTGGTCACATCTCTACGGAGTCACCTAGTGCAG  8140 fluorescence intensity (a.u.)
5. TCCTAGAGTCCTGGTCCATCTTTCTTGGCTTCTTGATATGCGGAGTCACCTAGTGCAG  8170 fluorescence intensity (a.u.)
6. TAGTTTTCTCATGTTCATCAATTTAAATACCTAACAATACCGGAGTCACCTAGTGCAG  8180 fluorescence intensity (a.u.)
7. ACTTTATTATCTACAGTACTTTAAGCACAACTTTTCGTTTCGGAGTCACCTAGTGCAG  8200 fluorescence intensity (a.u.)
8. ATTTATCAATACCTATCGGAAGATCGGGACCTAACATCCTCGGAGTCACCTAGTGCAG  8290 fluorescence intensity (a.u.)
9. CCGGTTTTGATTGGCTTCTTCGCAACCATAGTTGAATATCCGGAGTCACCTAGTGCAG  8450 fluorescence intensity (a.u.)
10. CAACGCCCTATTTTTTTTGGATCGGATAATTTTGGTTTTTCGGAGTCACCTAGTGCAG  8460 fluorescence intensity (a.u.)
11. TTGGTACCACTTTCTCAATTTTTCATTTATTTCTCATTTCCGGAGTCACCTAGTGCAG  8540 fluorescence intensity (a.u.)
12. TCAAGGGAGAGGAGAGGGAGGGTTCTGGTCCGGTCAGGACCGGAGTCACCTAGTGCAG  8580 fluorescence intensity (a.u.)
13. CAGATGTTCTTGGTCTTCTTAATATATGTCACCGTGACTCCGGAGTCACCTAGTGCAG  8620 fluorescence intensity (a.u.)
14. TCGCTGTGAGTGGAGGAGGAGGAGGAAGGGGAGGAGGATGCGGAGTCACCTAGTGCAG  8630 fluorescence intensity (a.u.)
15. AATGCTCATTTTCCACTACTGTCGATGTGATTTGGTTCTGCGGAGTCACCTAGTGCAG  8700 fluorescence intensity (a.u.)
16. TAATTGATCCTCGTTGTTAATACTGATAGCCTTGATGTCACGGAGTCACCTAGTGCAG  8780 fluorescence intensity (a.u.)
17. ATCTTACTGCCAGCTTCACCGTTCACCGCGTTCAACCGCACGGAGTCACCTAGTGCAG  8790 fluorescence intensity (a.u.)
18. TCCCCATACCTTTGATCGAATCATCTCCTTGAAACGCAAACGGAGTCACCTAGTGCAG  8840 fluorescence intensity (a.u.)
19. GATCACCGCACTGTTGGGTTCGCGACTTCTCGTATTCTCTCGGAGTCACCTAGTGCAG  8980 fluorescence intensity (a.u.)
20. TCCCTATTCGAATTATCACTGTTCACCGCATATTCGTTTTCGGAGTCACCTAGTGCAG  9040 fluorescence intensity (a.u.)
21. CACCTCCGCCCTCTCTCCGGCCGTCGCCGCCGCTCTCGTGCGGAGTCACCTAGTGCAG  9050 fluorescence intensity (a.u.)
22. TGAACTACTGCTGCTGCTACTCCATGTCATTTTCTCCCATCGGAGTCACCTAGTGCAG  9050 fluorescence intensity (a.u.)
23. TAACACATCTCTATATTTGATCTGCAGGTACCATCGTCTTCGGAGTCACCTAGTGCAG  9200 fluorescence intensity (a.u.)
24. CCGCGCCACCACCACCAGCCTCGTCAATTCTGAGGGCGCCCGGAGTCACCTAGTGCAG  9200 fluorescence intensity (a.u.)
25. GTCCCATGCTGCGACCGCACCCAAAACTAGTAGCCGTCTCCGGAGTCACCTAGTGCAG  9350 fluorescence intensity (a.u.)
26. CCCTGCGCAAGTACTTCCGTCACCAACGCTTGGCGCCACCCGGAGTCACCTAGTGCAG  9380 fluorescence intensity (a.u.)
27. TGCTATTTTAATTTTATTATTGTTATATACGTTTTAGTTACGGAGTCACCTAGTGCAG  9380 fluorescence intensity (a.u.)
28. GGTGTCTTGATTGATATGATTTAAATTATTCTTGGTCTTGCGGAGTCACCTAGTGCAG  9570 fluorescence intensity (a.u.)
29. CCTCTCTGCCTCTTCTCTCTCTCTCCCTCGCTTAAACCCTCGGAGTCACCTAGTGCAG  9580 fluorescence intensity (a.u.)
30. TTGTTATGATGATTGGTTAGTTCTTGATTCCTTGATTATTCGGAGTCACCTAGTGCAG  9610 fluorescence intensity (a.u.)
31. TCATATTTTTTTCTCTTGGTTTTTAATATGTACGTATACACGGAGTCACCTAGTGCAG  9930 fluorescence intensity (a.u.)
32. CAAAAATTATCATTTTCTCTGCACTATACCCTTATATACCCGGAGTCACCTAGTGCAG  9950 fluorescence intensity (a.u.)
33. TTTGCCACGCGTCGACCGCGCCGTGTCTTTGCCGCGGATGCGGAGTCACCTAGTGCAG  10200 fluorescence intensity (a.u.)
34. CGCCTCGACCCTGCGCCGGCTCCGGCCCCGCCGAAGTCCACGGAGTCACCTAGTGCAG  10400 fluorescence intensity (a.u.)
35. GGAGGCAGAGGGTTGGGGACTAAAGGGAGGAGGGGAGATGCGGAGTCACCTAGTGCAG  10400 fluorescence intensity (a.u.)
36. CATCTTCTCCAATTGATGTGGCTCTCTCATTTGACCATTTCGGAGTCACCTAGTGCAG  10400 fluorescence intensity (a.u.)
37. ACAAGCCTGAAACAATAGTCTTTACATGCCTTTATTTGTCCGGAGTCACCTAGTGCAG  10700 fluorescence intensity (a.u.)
38. GTTCTGTTGTCCATTTCCGGATTCTTTTGTCAAATTTAAACGGAGTCACCTAGTGCAG  10900 fluorescence intensity (a.u.)
39. GCTATTATTTTTTTGGCTTTTTTTTTCTTGTGACTTTGTTCGGAGTCACCTAGTGCAG  11300 fluorescence intensity (a.u.)
40. CTTTCCTTTCTTTGTTTTTTATCTTTGTTTTCTTTCTTCCCGGAGTCACCTAGTGCAG  11800 fluorescence intensity (a.u.)
41. GGGATTTTGAGGGAGGGCTGAATGCGATGTACTGAAGGGTCGGAGTCACCTAGTGCAG  13300 fluorescence intensity (a.u.)
42. GAGTTTTCCGTGTGGAGGGTGTGGATTTTTTCGTGTGTTCCGGAGTCACCTAGTGCAG  15500 fluorescence intensity (a.u.)
